Reference: PMC10806146

Sequences of proteins named here, by UniProt entry; tags and fusion partners are left off. A change or cut given only in a name is not applied to a line headed by its entry.
UniProt Q9Y616: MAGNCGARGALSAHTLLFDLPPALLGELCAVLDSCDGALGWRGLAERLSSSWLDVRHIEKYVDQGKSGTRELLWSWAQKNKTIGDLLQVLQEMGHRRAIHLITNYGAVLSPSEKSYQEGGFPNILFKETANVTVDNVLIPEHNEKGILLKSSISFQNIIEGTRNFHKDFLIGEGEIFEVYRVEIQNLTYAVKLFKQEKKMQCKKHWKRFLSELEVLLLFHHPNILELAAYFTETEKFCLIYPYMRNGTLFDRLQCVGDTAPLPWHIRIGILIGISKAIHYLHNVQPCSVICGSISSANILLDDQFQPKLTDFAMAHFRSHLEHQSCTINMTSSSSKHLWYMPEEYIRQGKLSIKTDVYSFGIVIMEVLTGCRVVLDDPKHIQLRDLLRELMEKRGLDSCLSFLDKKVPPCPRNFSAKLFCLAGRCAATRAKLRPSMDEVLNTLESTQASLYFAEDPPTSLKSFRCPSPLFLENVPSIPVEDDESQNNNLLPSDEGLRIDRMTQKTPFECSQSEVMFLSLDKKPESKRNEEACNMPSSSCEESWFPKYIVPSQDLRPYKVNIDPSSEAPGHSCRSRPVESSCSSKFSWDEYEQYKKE
UniProt Q99836: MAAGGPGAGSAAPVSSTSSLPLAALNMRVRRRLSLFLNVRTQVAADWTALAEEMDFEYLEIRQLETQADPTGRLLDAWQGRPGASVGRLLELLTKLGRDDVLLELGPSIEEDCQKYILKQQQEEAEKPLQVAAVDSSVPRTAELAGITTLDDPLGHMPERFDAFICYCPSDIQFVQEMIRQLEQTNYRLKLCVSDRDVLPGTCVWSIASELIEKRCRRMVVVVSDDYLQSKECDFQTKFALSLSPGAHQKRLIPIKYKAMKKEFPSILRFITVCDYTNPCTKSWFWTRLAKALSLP

Target: IRAK-M mutated at Pro22/Ala23 (human) (UniProt Q9Y616)
Assay: co-IP; IRAK-M WT or mutant co-expressed with IRAK-4-FLAG and MyD88-HA in 293T cells; IP with anti-IRAK-M 1F6 and protein A/G agarose; blots with anti-FLAG, anti-HA and anti-IRAK-M 4369

Substance: MyD88-HA (from UniProt Q99836 1-296)
- binding: binds

These are yes or no findings as the source states them, for the method shown. In cells and extracts the contact can be indirect. Binding can be weak; no strength is given.
